## Primary screen of a compound library

Data taken from ChEMBL document CHEMBL3988442, “University of Dundee, Small-Polar-MMV Screening Library” (2021).

Mtb growth Cornell: 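Whole-cell assay for inhibitors of Mycobacterium tuberculosis growth, labelled Cornell in the record; the read-out is not stated. The concentration is filed as 10 mM, unlikely as a test dose, so the dose is not known. Higher means stronger inhibition (inferred from two other growth screens of the library). Size under these conditions: about 53,000 compounds, about 900 of them at 50% or above in at least one test.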
Mtb heat-shock: 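Assay on Mycobacterium tuberculosis, filed only as a heat shock assay from Cornell; the read-out is not stated. The concentration is filed as 10 mM, unlikely as a test dose, so the dose is not known. The record gives no direction; compounds that gave an IC50 in retests scored well above the rest, so higher reads as stronger inhibition. Of about 69,000 compounds tested this way, about 930 (1.4%) reached 50% or more in at least one test.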

Each number is a percent effect as filed.
How 0% and 100% were set is not recorded. Most values in the screen are low, and negative values occur.
Compounds were drawn at random from those tested, without regard to their results.
A dash means the value is not listed here; it may have been measured.

Compound	Mtb growth Cornell	Mtb heat-shock
CN(C)CCN1CCCC12CCCN(C(=O)c1cccnc1)C2.O=C(O)C(F)(F)F.O=C(O)C(F)(F)F (centres undefined)	14.04	-7.014
O=C(c1cnn[nH]1)N(CCCO)Cc1cccnc1	-15.05	2.842
Cc1ccccc1-c1cncc(C2CCN(CC(=O)N(C)C)CC2)n1	26.77	-6.014
Cc1ncc(CC(=O)N2CCC3(CCC(=O)N(C4CC4)C3)CC2)c(=O)[nH]1	-20.8	-15.52
CC(NC(=O)NCCc1ccc(Cl)s1)c1ccccn1 (centres undefined)	-	0.4353
CC(C)c1noc(CCCC(=O)NC2CCS(=O)(=O)C2)n1 (centres undefined)	-	-8.927
Cn1c(N)c2c(=O)n(C)c(-c3ccccc3)cc2c(C#N)c1=O	21.48	14.97
Cc1ccc2nc(CN(Cc3ccc(C)o3)C(C)C)cc(=O)n2c1	-	7.721
C(=C\c1ccccc1)/CNCC1CCc2nncn2C1 (centres undefined)	-1.118	7.184
CN(Cc1noc2c1CCCC2)C(=O)CN1C(=O)COc2ccccc21	8.47	4.456
O=C(NCc1n[nH]c2c1CCCCC2)c1cnn2c1CCCC2	23.51	-24.39
Cc1noc(C)c1-c1cncc(C2CCCN2Cc2cc[nH]n2)n1 (centres undefined)	-1.801	-7.96
Cc1nonc1N1CCN(Cc2nc(CC3CC3)no2)CC1	-	-10.88
CC(C)=CCN1CCC2(CC1)c1ccccc1[C@@H](N1CCSCC1)[C@@H]2O	24.3	-30.94
Cc1nc(-c2ccccc2F)sc1C(=O)N1CCC(=O)CC1	24.39	-3.63
CCc1noc(CN(CC)Cc2cc3ccc(C)cc3[nH]c2=O)n1	-35.67	42.94
Cc1nc(C2CCCN2C(=O)CCc2ccc(F)cc2)ncc1C(N)=O (centres undefined)	-10.41	-14.82
CCn1ncc2c1CCCC2NCc1cccc2c1OCO2 (centres undefined)	-8.826	-22.46
CC(COc1ccccc1)NCc1nncn1C1CCCCC1 (centres undefined)	-11.82	-14.41
Cc1nc(C)c(-c2nnc(SCC(=O)O)n2C(C)c2ccccc2)o1 (centres undefined)	-26.77	-46.93
CC(Cc1ccc(Cl)cc1)NC(=O)Nc1cnn(CC(N)=O)c1 (centres undefined)	-9.069	2.052
CC(C)(C)C(=O)NCCCC(=O)NC(C)(C)c1ccc2c(c1)OCO2	-16.12	-15.83
CCc1cnc(CN(C)C2CCN(CC(=O)Nc3cc(C)on3)C2)o1 (centres undefined)	-	-19.35
COCCN(c1ccncc1)S(=O)(=O)c1cc(C)c(F)cc1F	-52.4	-33.21
CCC(CC)C(=O)N1CCN(Cc2cc(=O)c3ccccc3[nH]2)CC1	32.65	1.028
CN(C)S(=O)(=O)N1CCN(Cc2ccnc(N3CCCC3)n2)CC1	23.48	4.955
CN(CC1CCOC1)S(=O)(=O)c1cccc(C(=O)N2CCCCCC2)c1 (centres undefined)	10.31	-12.03
CCN1CC2(CC1=O)CN(C(=O)NC)CCN(S(C)(=O)=O)C2 (centres undefined)	29.27	-14.01
CNc1nc(C)c(C(=O)N2CCCCC2CCc2ccc(O)cc2)s1 (centres undefined)	-52.04	-3.505
O=C(NCCc1ccncc1)c1cccc(S(=O)(=O)NC2CCOC2)c1 (centres undefined)	-	-29.54
Cc1nnc2n1CCN(Cc1csc(-c3ccc(F)cc3)n1)C2	23.37	7.925
COc1ccccc1OCCC(=O)NCc1ncc(C)c(OC)c1C	29.95	-31.74
CCN(Cc1ccc2c(c1)OCCO2)C(=O)NC(C)Cn1ccnc1 (centres undefined)	-3.294	-16.6
O=C(O)C(F)(F)F.O=C(O)C(F)(F)F.[H][C@@]12CN(CC3CCOC3)C[C@]1([H])OCCN2CC(=O)NC (some centres undefined)	-59.96	-36.98
Cc1nn(C)c(C)c1-c1ccnc(N(C)Cc2noc(C(C)C)n2)n1	-42.17	-7.856
COc1cccc(-c2cc(C(=O)NCCCC(F)(F)F)[nH]n2)c1	-2.335	32.29
COc1cc(N2CCN(Cc3ccc(C)o3)C(CCO)C2)nc(N)n1 (centres undefined)	-	-14.26
O=C(NCCOCC(F)(F)F)c1ccc(-c2ccccc2)[nH]c1=O	-	-6.048
Cn1nccc1C1CCN(CC(O)c2cccc(F)c2)CC1 (centres undefined)	19.11	7.62
CC(CNC(=O)Nc1ccc(N(C)C)nc1)Cn1cccn1 (centres undefined)	53.74	9.217
COc1ccc(C)cc1-n1cnnc1C1CCCN(C)C1 (centres undefined)	-30.23	8.673
NC(=O)CN1CCCC(C(=O)N2CCC(Oc3ncccn3)CC2)C1 (centres undefined)	-22.66	-13.8
Cn1cnnc1C1CCN(C(=O)CCCOc2ccccc2)CC1	-	-12.16
CCc1[nH]ncc1C(=O)N1CCCN(Cc2cnn(C(C)C)c2)CC1	4.399	-0.05045
CCN(Cc1cnn(C)c1)C[C@H]1CC[C@@H](Cc2ccc(OC)nc2)O1	4.692	-17.01
CCC(C)Nc1ccc(-c2nc(-c3cccc(OC)c3OC)no2)cn1 (centres undefined)	2.9	-24.65
COCCNC(=O)CNC(=O)c1nc(Cc2c(Cl)cccc2Cl)no1	11.16	-10.93
O=C(O)c1ccnc(-c2ccnc(COc3ccccc3Cl)n2)c1	-1.595	2.154
Cc1cc(C)cc(C(C(=O)O)N(C)CCCN2CCOCC2)c1 (centres undefined)	13.31	-5.7
Cn1cc2c(n1)C(CNCC1CCOCC1)OCC2.O=C(O)C(F)(F)F.O=C(O)C(F)(F)F (centres undefined)	-14.97	-22.62
CN(C)C1CCN(C(=O)c2n[nH]c3c2CCN(CC2CCC2)C3)CC1	-25.16	38.1
C1CCCN(CC2CCCN(Cc3noc(C4CC4)n3)C2)CC1 (centres undefined)	-	7.551
CN(C)CC1CN(c2ncnc3[nH]ccc23)CCO1 (centres undefined)	-	-12.52
CCc1ccc(C(=O)NCc2cccc(S(=O)(=O)NC)c2)o1	-	4.962
Cc1ncnc2c1CCN(S(=O)(=O)C1CC1)CC2	9.353	3.037
Cc1ccc(CN2CCC3(CC2)CN(c2ccccc2)C(=O)CO3)o1.O=C(O)C(F)(F)F	-20.77	-15.41
Cc1cc(C)n(CC2CCCN2CC(=O)N(C)Cc2ccco2)n1 (centres undefined)	-	-6.341
[H][C@@]12CN(Cc3c[nH]c4ccccc34)C[C@]1([H])OCC(=O)N2	-	24.14
O=C(CCN1CCOCC1)N1CCC(Cc2ccc(CO)cc2)C1 (centres undefined)	-2.316	0.5452
COCCN1CCC12CCN(c1ncccn1)C2.O=C(O)C(F)(F)F (centres undefined)	-15.73	11.54
Cc1nc(-c2cccc(N3CCC(NC4CCSC4)CC3)c2)cs1 (centres undefined)	-	10.28
CCc1noc(C)c1C(=O)N1CCCC1Cn1cc(C)cn1 (centres undefined)	1.09	-0.581
Cc1nccn1CC1CCCN1S(=O)(=O)Cc1ccon1 (centres undefined)	1.22	21.03
[H][C@]12CCN(C(=O)C3CCOC3)C[C@@]1([H])OCCN(S(C)(=O)=O)C2 (some centres undefined)	-3.773	31.79
O=C1CN(Cc2cn(C3CCN(C4CSCCSC4)CC3)nn2)CCN1	-	-21.83
CC(C)c1nn(C)c(N(C)C)c1CNC1CCOc2c(F)cccc21.Cl (centres undefined)	-	0.8128
CCn1ncc2c1CCCC2NCc1cc(OC)cc(OC)c1 (centres undefined)	-	-10.04
O=C(NCc1csc(Br)c1)c1ccncc1	-	14.96
Cc1noc(C)c1CCC(=O)N1CCCC(n2cccn2)C1 (centres undefined)	-20	1.685
Cc1nc(C)n(C2CCCN(C(=O)c3cccc4[nH]ncc34)C2)n1 (centres undefined)	8.802	0.208
Cn1cccc1C(=O)N1CCCC2(CCN(CCN3CCCC3)C2=O)C1.O=C(O)C(F)(F)F (centres undefined)	13.54	-31.21
COC(=O)[C@H]1C[C@@H](O)CCN1S(=O)(=O)c1ccc(F)cc1F	-	-8.645
Cc1nn(Cn2ccc(C(=O)N3CCCC(C)C3)n2)c(C)c1Cl (centres undefined)	9.47	17.37
CC(C)CCN1CC[C@H](c2nnc(Cc3c[nH]c4ccccc34)o2)C1	7.818	-30.9
Cc1nc(C)c(CCNC(=O)NC2CC(=O)N(C(C)(C)C)C2)s1 (centres undefined)	-21.79	11.19
Cc1ncsc1C(=O)N1CCCC1c1c(C)nn(C)c1Cl (centres undefined)	-33.81	1.722
Cc1noc(COCC(=O)Nc2cc(C)c(Br)cn2)n1	41.12	14.51

The last 7 entries again:

Compound,Mtb growth Cornell,Mtb heat-shock
Cn1cccc1C(=O)N1CCCC2(CCN(CCN3CCCC3)C2=O)C1.O=C(O)C(F)(F)F (centres undefined),13.54,-31.21
COC(=O)[C@H]1C[C@@H](O)CCN1S(=O)(=O)c1ccc(F)cc1F,-,-8.645
Cc1nn(Cn2ccc(C(=O)N3CCCC(C)C3)n2)c(C)c1Cl (centres undefined),9.47,17.37
CC(C)CCN1CC[C@H](c2nnc(Cc3c[nH]c4ccccc34)o2)C1,7.818,-30.9
Cc1nc(C)c(CCNC(=O)NC2CC(=O)N(C(C)(C)C)C2)s1 (centres undefined),-21.79,11.19
Cc1ncsc1C(=O)N1CCCC1c1c(C)nn(C)c1Cl (centres undefined),-33.81,1.722
Cc1noc(COCC(=O)Nc2cc(C)c(Br)cn2)n1,41.12,14.51